For one substance, binding results are on record in PMC5237262.

Chains of the proteins cited; added tags and fusions are not shown. Lines headed by an entry give the natural chain unless they say otherwise; changes in a name come on top. A line that says so, or that is headed by a name, gives the form on record, which may keep a tag or linker.
heterogeneous nuclear ribonucleoprotein A2 (hnRNPA2) (P22626-2, form named): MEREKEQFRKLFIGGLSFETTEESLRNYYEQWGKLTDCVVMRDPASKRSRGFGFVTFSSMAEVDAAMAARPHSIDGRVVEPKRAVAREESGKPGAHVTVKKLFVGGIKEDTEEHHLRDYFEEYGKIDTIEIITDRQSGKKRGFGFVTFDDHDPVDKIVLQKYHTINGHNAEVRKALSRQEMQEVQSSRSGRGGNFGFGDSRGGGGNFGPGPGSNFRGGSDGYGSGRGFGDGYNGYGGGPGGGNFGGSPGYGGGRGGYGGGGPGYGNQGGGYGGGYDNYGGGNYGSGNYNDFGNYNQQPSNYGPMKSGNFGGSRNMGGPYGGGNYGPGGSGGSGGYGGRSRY

For the experiment, the target named is T1, NIMA (never in mitosis gene A)-related kinase 2 (NEK2), tagged with HA and 3xFLAG (human) (UniProt P51955).
T1 sequence: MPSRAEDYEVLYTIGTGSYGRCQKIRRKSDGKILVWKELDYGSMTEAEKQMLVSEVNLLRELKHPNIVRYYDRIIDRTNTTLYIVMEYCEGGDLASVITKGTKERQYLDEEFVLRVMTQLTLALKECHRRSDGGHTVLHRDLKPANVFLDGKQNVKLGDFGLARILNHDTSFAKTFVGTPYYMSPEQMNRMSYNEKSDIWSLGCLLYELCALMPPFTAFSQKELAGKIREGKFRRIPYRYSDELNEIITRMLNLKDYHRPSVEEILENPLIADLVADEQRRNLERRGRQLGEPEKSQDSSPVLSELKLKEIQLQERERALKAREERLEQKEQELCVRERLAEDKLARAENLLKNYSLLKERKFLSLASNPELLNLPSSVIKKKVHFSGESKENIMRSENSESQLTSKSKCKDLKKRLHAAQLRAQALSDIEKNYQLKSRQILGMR
Description: co-IP; lysate of NEK2 overexpressing ARP1 cells (IP lysis buffer), HA antibody or control IgG overnight at 4 °C, protein A Dynabeads 2 h at 4 °C, three washes with TBST, Western blotting.

These are yes or no findings as the source states them, for the method shown. In cells and extracts the contact can be indirect. Some results given as binding are weak or reduced against the parent protein; the word gives no strength. Tags and fused reporters may be left off the sequences shown.

For “heterogeneous nuclear ribonucleoprotein A2 (hnRNPA2) (from UniProt P22626-2 1-341)”, the binding result is listed as “binds”.
